Source: PubChem BioAssay AID1259308 (NCATS, 2017)

Purpose: 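Genes whose loss raises luciferase production in HEK293 cells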 (primary screen)
System: human HEK293 embryonic kidney cells stably expressing firefly luciferase (HEK-CMV-Luc2-Hygro)
Reagents: single siRNA against human genes, 0.8 pmol siRNA per well
Time to read-out: 72 h
Detection: 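Reporter luminescence and viable-cell signal on separate replicate plates, given as percent of non-targeting control and median/MAD z-scores, plus per-cell luciferase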
Scale: total luciferase, z-score and total luciferase, % of control: higher = more reporter protein produced
Hit rule: 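Active when the median/MAD z-score for overall luciferase is greater than 3; a gene was taken forward for validation with new siRNAs if at least two of its three siRNAs passed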
Meaning of the calls: active = raised luciferase; inactive = no rise
This is an unselected part of about 59,000 reagents. About 1,510 of them (2.6%) count as active. 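Calls use total luciferase alone and ignore viability, so some active siRNAs may act by altering cell number.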 Reagents against one gene are numbered here. Not all columns of the deposit are shown.

What did the screen give for CHRNA1 #1?
total luciferase, z-score: 1.7; total luciferase, % of control: 116; outcome: inactive

For CHRNA1 #2, what does the deposit list?
total luciferase, z-score: 2.57; total luciferase, % of control: 133; outcome: inactive

For CHRNA1 #3, what was measured?
total luciferase, z-score: -2.31; total luciferase, % of control: 35.9; outcome: inactive

What did the screen give for PATE2 #1?
total luciferase, z-score: 0.615; total luciferase, % of control: 94.1; outcome: inactive

With PATE2 #2, what does the deposit list?
total luciferase, z-score: -0.488; total luciferase, % of control: 72.2; outcome: inactive

For PATE2 #3, how do the results read?
total luciferase, z-score: 0.0509; total luciferase, % of control: 82.9; outcome: inactive

With CADM1 #1, how do the results read?
total luciferase, z-score: 0.125; total luciferase, % of control: 84.4; outcome: inactive

With CADM1 #2, how do the results read?
total luciferase, z-score: 0.801; total luciferase, % of control: 97.8; outcome: inactive

What is on record for CADM1 #3?
total luciferase, z-score: 1.46; total luciferase, % of control: 111; outcome: inactive

How did the screen score SGPL1 #1?
total luciferase, z-score: 0.948; total luciferase, % of control: 101; outcome: inactive

For SGPL1 #2, what was measured?
total luciferase, z-score: -1.27; total luciferase, % of control: 56.7; outcome: inactive

With SGPL1 #3, how do the results read?
total luciferase, z-score: 0.962; total luciferase, % of control: 101; outcome: inactive

For SNRPG #1, how do the results read?
total luciferase, z-score: 1.78; total luciferase, % of control: 117; outcome: inactive

How did the screen score SNRPG #2?
total luciferase, z-score: 3.23; total luciferase, % of control: 146; outcome: active

For SNRPG #3, what does the deposit list?
total luciferase, z-score: 1.79; total luciferase, % of control: 117; outcome: inactive

How did the screen score CLEC10A #1?
total luciferase, z-score: -1.7; total luciferase, % of control: 48.1; outcome: inactive

With CLEC10A #2, what was measured?
total luciferase, z-score: -0.965; total luciferase, % of control: 62.7; outcome: inactive

How did the screen score CLEC10A #3?
total luciferase, z-score: 0.235; total luciferase, % of control: 86.6; outcome: inactive

For SPRR4 #1, what was measured?
total luciferase, z-score: 0.906; total luciferase, % of control: 99.9; outcome: inactive

What is on record for SPRR4 #2?
total luciferase, z-score: 0.443; total luciferase, % of control: 90.7; outcome: inactive

What did the screen give for SPRR4 #3?
total luciferase, z-score: 0.952; total luciferase, % of control: 101; outcome: inactive

With PPCS #1, what does the deposit list?
total luciferase, z-score: 0.376; total luciferase, % of control: 89.4; outcome: inactive

For PPCS #2, what does the deposit list?
total luciferase, z-score: -0.484; total luciferase, % of control: 72.3; outcome: inactive

What did the screen give for PPCS #3?
total luciferase, z-score: 0.643; total luciferase, % of control: 94.7; outcome: inactive

How did the screen score SAMD13 #1?
total luciferase, z-score: 0.11; total luciferase, % of control: 84.1; outcome: inactive

With SAMD13 #2, how do the results read?
total luciferase, z-score: -1.3; total luciferase, % of control: 55.9; outcome: inactive

With SAMD13 #3, what was measured?
total luciferase, z-score: -1.07; total luciferase, % of control: 60.7; outcome: inactive

Which result is listed for F13A1 #1?
total luciferase, z-score: 0.466; total luciferase, % of control: 91.2; outcome: inactive

What is on record for F13A1 #2?
total luciferase, z-score: 0.31; total luciferase, % of control: 88.1; outcome: inactive

How did the screen score F13A1 #3?
total luciferase, z-score: 0.141; total luciferase, % of control: 84.7; outcome: inactive

For OR7G1 #1, what does the deposit list?
total luciferase, z-score: 1.27; total luciferase, % of control: 107; outcome: inactive

Which result is listed for OR7G1 #2?
total luciferase, z-score: -0.0799; total luciferase, % of control: 80.3; outcome: inactive

How did the screen score OR7G1 #3?
total luciferase, z-score: -0.839; total luciferase, % of control: 65.2; outcome: inactive

Reagents above with an active call, once more:
SNRPG #2 | total luciferase, z-score: 3.23; total luciferase, % of control: 146; outcome: active
